# Test results from PubChem BioAssay (Tox21).
# Chains of the proteins cited; added tags and fusions are not shown. Lines headed by an entry give the natural chain unless they say otherwise; changes in a name come on top.
# UniProt P28223, whole entry, looked up: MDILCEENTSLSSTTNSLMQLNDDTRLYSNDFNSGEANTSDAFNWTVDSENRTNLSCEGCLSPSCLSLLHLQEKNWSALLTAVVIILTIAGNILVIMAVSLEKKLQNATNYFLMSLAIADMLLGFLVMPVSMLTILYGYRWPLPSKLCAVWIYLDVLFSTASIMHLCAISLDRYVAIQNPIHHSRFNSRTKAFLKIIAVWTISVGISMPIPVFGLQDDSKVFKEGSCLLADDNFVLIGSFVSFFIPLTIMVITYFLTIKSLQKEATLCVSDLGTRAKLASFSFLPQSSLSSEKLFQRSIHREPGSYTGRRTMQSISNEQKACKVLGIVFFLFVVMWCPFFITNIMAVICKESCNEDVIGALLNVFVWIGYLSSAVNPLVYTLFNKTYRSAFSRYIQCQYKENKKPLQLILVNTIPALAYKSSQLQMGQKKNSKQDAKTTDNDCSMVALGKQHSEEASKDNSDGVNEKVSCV
# UniProt P11229: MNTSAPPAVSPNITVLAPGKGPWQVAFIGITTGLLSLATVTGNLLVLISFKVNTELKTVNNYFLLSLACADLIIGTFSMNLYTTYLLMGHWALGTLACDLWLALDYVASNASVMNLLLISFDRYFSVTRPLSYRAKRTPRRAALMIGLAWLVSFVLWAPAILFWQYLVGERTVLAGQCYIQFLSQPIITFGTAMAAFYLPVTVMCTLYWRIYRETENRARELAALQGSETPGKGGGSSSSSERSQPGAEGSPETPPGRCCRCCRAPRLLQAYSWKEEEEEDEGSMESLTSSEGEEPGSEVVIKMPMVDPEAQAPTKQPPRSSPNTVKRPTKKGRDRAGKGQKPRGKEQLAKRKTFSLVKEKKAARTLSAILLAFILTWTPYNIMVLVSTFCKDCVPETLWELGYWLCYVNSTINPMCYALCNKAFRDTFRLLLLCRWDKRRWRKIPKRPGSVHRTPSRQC
# UniProt P14416, whole entry, looked up: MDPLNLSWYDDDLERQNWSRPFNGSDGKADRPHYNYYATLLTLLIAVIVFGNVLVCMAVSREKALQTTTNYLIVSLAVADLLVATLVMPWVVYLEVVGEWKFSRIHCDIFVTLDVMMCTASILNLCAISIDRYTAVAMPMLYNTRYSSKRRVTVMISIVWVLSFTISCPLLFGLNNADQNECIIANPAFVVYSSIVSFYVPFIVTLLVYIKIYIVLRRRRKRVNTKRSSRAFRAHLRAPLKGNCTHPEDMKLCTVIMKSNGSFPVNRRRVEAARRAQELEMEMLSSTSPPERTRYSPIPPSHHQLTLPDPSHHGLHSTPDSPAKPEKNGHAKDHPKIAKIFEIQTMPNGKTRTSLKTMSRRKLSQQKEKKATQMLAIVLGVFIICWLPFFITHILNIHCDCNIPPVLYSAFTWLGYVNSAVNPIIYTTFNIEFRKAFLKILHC
# Values joined by “and” are separate entries in the source; they are usually repeats but may differ in a detail not shown here. Identical values can stand only once. This list was built around the results that the source calls inconclusive (neither active nor inactive); the mix of calls is not that of the screen. For some assays here: Where the call is inconclusive, the potency comes from a doubtful curve fit. The source holds several records for some structures; these can differ, active in one and inactive in another. Active and inactive are the calls of the source. Unless noted, the call rests on the fitted dose curve.
# How the values were obtained:
# [1] = p53 small molecule agonists, cell-based qHTS assay with human liver microsomes (AID 1963577); settings: HCT-116 p53RE-bla with human liver microsomes, ratio, 16 h; activation: at 66 µM (top of the series) unless noted;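 on activation: p53 response element beta-lactamase reporter cells with liver microsomes plus NADPH; on the % scale 0 is the no-effect control and ±100 the full control effect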
# Summary of the method: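 p53RE-bla cells; 5 h settle, 37 C/5% CO2; cpd + HLM 0.5 mg/mL + NADPH 0.5 mg/mL (final); 16 h 37 C; LiveBLAzer 2 h RT dark; fluorescence readout.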
# [2] = p53 small molecule agonists, cell-based qHTS assay with rat liver microsomes: qHTS cell viability counter screen (AID 1963580); further: nearly all actives have a fitted effect of over 45% in size
# Summary of the method: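 Intracellular ATP, by CellTiter-Glo luminescence, defines viability. HCT-116 p53RE-bla cells, 4,000 per well, were compound-treated in the presence of rat liver microsomes and NADPH for 16 h at 37 C.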
# [3] = target: Beta-2 adrenergic receptor (Homo sapiens) (UniProt P07550); experiment: Adrenergic beta2 receptor (ADRB2) small molecule antagonists, cell-based qHTS assay (AID 1963592); settings: CHO-ADRB2 cells, isoproterenol-stimulated cAMP HTRF ratio, 0.5 h; activity change, negative = inhibition: at 92.4 µM (top of the series) unless noted; further: nearly all actives have a fitted effect of over 50% in size
# Summary of the method: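 Cells (CHO, stable ADRB2 overexpression) incubated 18-20hr at 37C; compounds added from DMSO; agonist mix (1nM isoproterenol, 100uM IBMX, 25uM Ro-20-1724) added; 0.5hr RT; d2-cAMP and anti-cAMP-cryptate added; 1hr RT; 665/615 nm read.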
# [4] = cAMP Responsive Elements (CRE) small molecule antagonists, cell-based qHTS assay (AID 1963591; active means well fitted inhibition curve with a large enough effect in the signal ratio in the repeat runs, not every such curve was filed as active; inconclusive means weak or mixed curves, or effect the other way; the % refers to the signal ratio; on activity change, negative = inhibition: on the % scale 0 is the no-effect control and ±100 the full control effect); settings: CRE-bla HEK293T, beta-lactamase FRET ratio; activity change, negative = inhibition: at 92.4 µM (top of the series) unless noted
# Summary of the method: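 Antagonist mode: test compounds are co-incubated with the adenylyl cyclase activator NKH477 (0.25 uM final) on CRE-bla HEK293T cells for 3 h at 37 °C, followed by LiveBLAzer substrate loading.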
# [5] = target: Beta-2 adrenergic receptor (Homo sapiens) (UniProt P07550); experiment: Adrenergic beta2 receptor (ADRB2) small molecule agonists, cell-based qHTS assay (AID 1963593); settings: CHO-ADRB2 cells, cAMP HTRF, 30 min;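 on activation: CHO cells stably overexpressing human ADRB2; on the % scale 0 is the no-effect control and ±100 the full control effect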
# Summary of the method: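 CHO cells stably over-expressing ADRB2 were plated overnight at 37C, then dosed with compounds plus a stimulation mix containing 100uM IBMX and 25uM Ro-20-1724 for 0.5hr at room temperature. cAMP was measured by HTRF competition, 1hr.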
# [6] = p53 small molecule agonists, cell-based qHTS assay with human liver microsomes: qHTS cell viability counter screen (AID 1963579); further: nearly all actives have a fitted effect of over 45% in size
# Summary of the method: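 Luminescent CellTiter-Glo read-out, 30 min at room temperature, gauged cytotoxicity in p53RE-bla cells exposed 16 h at 37 C to DMSO-dissolved compounds with metabolic activation by human liver microsomes and NADPH, each 0.5 mg/mL final.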
# [7] = cAMP Responsive Elements (CRE) small molecule agonists, cell-based qHTS assay (AID 1963590); settings: CRE-bla HEK293T, beta-lactamase FRET ratio, 3 h; activation: at 92.4 µM (top of the series) unless noted
# Summary of the method: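 Agonist mode qHTS in CRE-bla HEK 293T cells: compounds dosed from DMSO for 3 h at 37 C/5% CO2, followed by LiveBLAzer B/G FRET substrate for 2 h at room temperature.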
# [8] = target: 5-hydroxytryptamine receptor 2A (Homo sapiens) (UniProt P28223); experiment: 5-hydroxytryptamine receptor 2A (HTR2A) small molecule antagonists, cell-based qHTS assay (AID 1963586); further: nearly all actives have a fitted effect of over 45% in size
# Summary of the method: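 Antagonist-mode intracellular calcium assay: DOI (4 nM) added after 5 min compound pre-incubation at room temperature to dye-loaded HTR2A-CHO cells. Fluorescence followed for 3 min, sampled every second.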
# [9] = target: 5-hydroxytryptamine receptor 2A (Homo sapiens) (UniProt P28223); experiment: 5-hydroxytryptamine receptor 2A (HTR2A) small molecule agonists, cell-based qHTS assay (AID 1963587); further: nearly all actives have a fitted effect of over 30% in size; on activation: on the % scale 0 is the no-effect control and ±100 the full control effect
# Summary of the method: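 Kinetic calcium-flux fluorescence (2 min, 1 sec intervals) after compound addition in agonist mode. HTR2A-CHO cells were cultured 18 h, then dye-loaded 1 h at 37 C.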
# [10] = target: Muscarinic acetylcholine receptor M1 (Homo sapiens) (UniProt P11229); experiment: Cholinergic receptor muscarinic 1 (CHRM1) small molecule antagonists, cell-based qHTS assay (AID 1963588); further: nearly all actives have a fitted effect of over 40% in size
# Summary of the method: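 CHRM1-CHO calcium-flux assay, antagonist mode. Cells were seeded 18 h, dye-loaded 1 h at 37 C and given compound for 5 min at RT, then acetylcholine was added at 50nM. FDSS fluorescence was read 3 min; 15 concentrations, three runs.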
# [11] = target: D(2) dopamine receptor (Homo sapiens) (UniProt P14416); experiment: Dopamine D2 receptor (DRD2) small molecule agonists, cell-based qHTS assay (AID 1963594); settings: HEK293-DRD2 cAMP HTRF, agonist mode, 30 min; activation: at 92.4 µM (top of the series) unless noted; further: nearly all actives have a fitted effect of over 35% in size
# Summary of the method: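 cAMP accumulation in DRD2-HEK293 cells measured by HTRF after 1 h detection; compounds added 10 min before NKH477 (200nM […]) forskolin-analogue stimulation, 30 min at room temperature, with Ro20-1724 present at 0.1 mM final.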
# [12] = p53 small molecule agonists, cell-based qHTS assay: qHTS cell viability counter screen (AID 1963581); further: nearly all actives have a fitted effect of over 45% in size
# Summary of the method: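 Cells: HCT-116 with p53 response element-driven beta-lactamase. Treatment: 16 h, 37 C, compounds in DMSO. Read: CellTiter-Glo luminescence after 30 min RT.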
# [13] = p53 small molecule agonists, cell-based qHTS assay (AID 1963582; active means well fitted activation curve with a large enough effect in the signal ratio in the repeat runs, not every such curve was filed as active; inconclusive means weak or mixed curves; the % refers to the signal ratio); settings: HCT-116 p53RE-bla reporter, beta-lactamase FRET ratio, 16 h; activation: at 66 µM (top of the series) unless noted
# Summary of the method: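 Quantitative HTS in p53RE-bla cells: after a 5 h settling period, compounds delivered in DMSO were left on cells for 16 h at 37 C, and reporter induction was measured as fluorescence following 2 h substrate loading.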
# [14] = target: D(2) dopamine receptor (Homo sapiens) (UniProt P14416); experiment: Dopamine D2 receptor (DRD2) small molecule antagonists, cell-based qHTS assay (AID 1963595; active means well fitted inhibition curve with a large enough effect in the signal ratio in the repeat runs, with a control signal flat; inconclusive means weak or mixed curves, or effect the other way; the % refers to the signal ratio); settings: HEK293-DRD2 cAMP HTRF antagonist mode; activity change, negative = inhibition: at 92.4 µM (top of the series) unless noted
# Summary of the method: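 Human DRD2 antagonist qHTS measuring cAMP by HTRF. The cells are exposed to compound for 10 min, then to NKH477 (200 nM) and quinpirole (12 nM) for 30 min at RT, with Ro20-1724 (0.1 mM) present throughout.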
# [15] = activation: at 92.4 µM (top of the series) unless noted
# Potency means the concentration at half of the fitted maximal effect.
structure (smiles),measurement,setting,value
CCOC(=O)NNc1nncc2ccccc12,Potency,[1],inactive
same,Potency,[2],inactive
same,Potency,[3],"inconclusive: 34.4 µM [falling, partial curve, poor fit]"
C=C(C)C(=O)OCCC[Si](OC)(OC)OC,Potency,[1],"inconclusive: 50.8 µM [activator, single point]"
same,Potency,[2],inactive
same,Potency,[4],inactive
same,activation,[5]; [15],inconclusive: 2.36% and inconclusive: -32.1%
CCCCC/C=C\C/C=C\CCCCCCCC(=O)OC,activation,[1],inconclusive: 18.1%
same,Potency,[6],active: 51.3 µM
same,Potency,[7],"inconclusive: 30.6 µM [fluorescent, partial curve]"
same,Potency,[4],"inconclusive: 35.9 µM [fluorescent, full curve]"
same,Potency,[5]; [15],"inconclusive: 24.1 µM [inhibitor, partial curve, poor fit] and inactive"
NC(=O)Cn1c(=O)cc(CCN2CCN(c3nccc4sccc34)CC2)c2ccc(F)cc21,activation,[1],inconclusive: -21.2%
same,Potency,[6],"inconclusive: 4.58 µM [cytotoxic, single point]"
same,Potency,[8],inconclusive: 0.0024 µM [inhibitor]
same,Potency,[9],inactive
same,Potency,[10],active: 23.7 µM
same,Potency,[7],"inconclusive: 61.1 µM [fluorescent, partial curve]"
same,Potency,[3],active: 27.3 µM
same,Potency,[5]; [15],"inconclusive: 12.2 µM [inhibitor, full curve]"
same,Potency,[11],inactive
COC(=O)CCCC(=O)OC,Potency,[1],inactive
same,Potency,[2],"inconclusive: 10.2 µM [cytotoxic, single point]"
same,Potency,[8],"inconclusive: 47.2 µM [inhibitor, single point]"
same,Potency,[4],inactive
same,activation,[5]; [15],inconclusive: 59.1% and inconclusive: 4.35%
ClCCOCCOCCCl,Potency,[1],inconclusive: 51.3 µM [activator]
same,Potency,[2],"inconclusive: 51.3 µM [rising, partial curve, poor fit]"
O=C(O)COC(=O)Cc1ccccc1Nc1c(Cl)cccc1Cl,Potency,[1],"inconclusive: 9.98 µM [fluorescent, partial curve]"
same,Potency,[2],inactive
same,Potency,[5]; [15],inactive
CCCc1c(OCCCCc2nn[nH]n2)ccc(C(C)=O)c1O,activation,[1],inconclusive: 1.29% [at 30.3 µM]
same,Potency,[6],"inconclusive: 0.0316 µM [rising, full curve]"
same,Potency,[8],"inconclusive: 47.2 µM [inhibitor, single point]"
same,Potency,[7],"inconclusive: 13.7 µM [fluorescent, full curve] and inconclusive: 11.9 µM [fluorescent, full curve]"
same,Potency,[4],"inconclusive: 24.3 µM [fluorescent, partial curve] and inconclusive: 13.3 µM [fluorescent, partial curve]"
same,activation,[5]; at 42.5 µM (top of the series),inconclusive: -28.2%
same,activation,[5]; at 92.4 µM (top of the series),inconclusive: 0.631%
same,Potency,[11],inconclusive: 0.0007 µM
Cc1ccco1,Potency,[1],inactive
same,Potency,[12],inactive
same,activation,[5]; [15],inconclusive: -2.49%
CC(=O)NS(=O)(=O)c1ccc(N)cc1,Potency,[1],inconclusive: 51.5 µM [fluorescent]
same,Potency,[12],"inconclusive: 12.6 µM [rising, single point]"
same,Potency,[5]; [15],"inconclusive: 0.075 µM [inhibitor, full curve, poor fit]"
same,activation,[5]; [15],inconclusive: -2.38% and inconclusive: -1.05%
O=C(O)Cc1c[nH]c2ccccc12,Potency,[1],inactive
same,Potency,[12],"inconclusive: 646 nM [cytotoxic, partial curve] and inactive"
same,Potency,[13],inactive
same,activation,[5]; [15],inconclusive: 7.45%
NO,Potency,[1],inconclusive: 46.7 µM [activator]
same,Potency,[12],inactive
same,Potency,[3],inactive
same,Potency,[5]; [15],inactive
CN(C)CCOC(c1ccccc1)c1ccc(Br)cc1 (stereo not drawn),Potency,[1],"inconclusive: 8.9 µM [fluorescent, full curve]"
same,Potency,[12],"inconclusive: 7.07 µM [rising, full curve]"
same,Potency,[13],inactive
same,Potency,[8],active: 6.5 µM
CCCCCN=C(N)N/N=C/c1c[nH]c2ccc(OC)cc12,Potency,[1],inactive
same,Potency,[12],active: 15.8 µM
same,Potency,[13],"inconclusive: 25.1 µM [falling, single point]"
same,Potency,[8],active: 0.0326 µM
same,Potency,[9],active: 0.0107 µM
same,Potency,[7],"inconclusive: 23.7 µM [activator, partial curve]"
same,"activity change, negative = inhibition",[4],inconclusive: -30.2% [at 42.4 µM]
same,Potency,[5]; [15],inconclusive: 11.9 µM [inhibitor]
same,Potency,[11],"inconclusive: 33.5 µM [rising, single point]"
same,Potency,[14],"inconclusive: 33.5 µM [inhibitor, single point]"
